According to US20090186036A1:
No constants are given. Whether binding was seen depends on the method and setting. Some results given as binding are weak or reduced against the parent protein; the word gives no strength.

Sequences of proteins named here, by UniProt entry; tags and fusion partners are left off. A change or cut given only in a name is not applied to a line headed by its entry.
UniProt P06756: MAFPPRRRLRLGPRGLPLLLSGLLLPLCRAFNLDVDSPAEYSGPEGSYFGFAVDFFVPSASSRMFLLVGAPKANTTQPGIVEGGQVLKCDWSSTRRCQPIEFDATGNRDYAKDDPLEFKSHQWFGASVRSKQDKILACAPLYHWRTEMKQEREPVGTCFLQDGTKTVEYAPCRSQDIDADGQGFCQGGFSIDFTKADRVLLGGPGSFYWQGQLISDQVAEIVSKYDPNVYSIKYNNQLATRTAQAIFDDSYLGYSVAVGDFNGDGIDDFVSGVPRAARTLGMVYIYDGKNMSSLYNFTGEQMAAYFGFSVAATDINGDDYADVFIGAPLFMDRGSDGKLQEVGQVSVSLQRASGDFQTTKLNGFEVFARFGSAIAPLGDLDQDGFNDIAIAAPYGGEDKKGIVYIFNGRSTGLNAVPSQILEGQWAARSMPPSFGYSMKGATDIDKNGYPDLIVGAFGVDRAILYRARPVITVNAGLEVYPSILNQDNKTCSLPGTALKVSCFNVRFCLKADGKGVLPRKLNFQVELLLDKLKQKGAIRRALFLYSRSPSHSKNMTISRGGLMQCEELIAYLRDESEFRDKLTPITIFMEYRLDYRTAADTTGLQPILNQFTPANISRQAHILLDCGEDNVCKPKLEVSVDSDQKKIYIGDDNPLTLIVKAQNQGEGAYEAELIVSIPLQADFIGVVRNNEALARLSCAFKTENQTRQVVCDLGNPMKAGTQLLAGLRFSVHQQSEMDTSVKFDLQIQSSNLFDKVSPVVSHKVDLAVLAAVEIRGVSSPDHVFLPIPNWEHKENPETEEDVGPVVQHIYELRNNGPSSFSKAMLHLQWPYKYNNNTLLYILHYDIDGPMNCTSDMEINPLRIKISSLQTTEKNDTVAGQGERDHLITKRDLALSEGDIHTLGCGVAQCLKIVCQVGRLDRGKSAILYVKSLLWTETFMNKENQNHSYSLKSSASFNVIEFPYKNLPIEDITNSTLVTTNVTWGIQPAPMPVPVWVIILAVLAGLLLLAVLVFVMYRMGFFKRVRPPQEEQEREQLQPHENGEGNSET
UniProt P18564: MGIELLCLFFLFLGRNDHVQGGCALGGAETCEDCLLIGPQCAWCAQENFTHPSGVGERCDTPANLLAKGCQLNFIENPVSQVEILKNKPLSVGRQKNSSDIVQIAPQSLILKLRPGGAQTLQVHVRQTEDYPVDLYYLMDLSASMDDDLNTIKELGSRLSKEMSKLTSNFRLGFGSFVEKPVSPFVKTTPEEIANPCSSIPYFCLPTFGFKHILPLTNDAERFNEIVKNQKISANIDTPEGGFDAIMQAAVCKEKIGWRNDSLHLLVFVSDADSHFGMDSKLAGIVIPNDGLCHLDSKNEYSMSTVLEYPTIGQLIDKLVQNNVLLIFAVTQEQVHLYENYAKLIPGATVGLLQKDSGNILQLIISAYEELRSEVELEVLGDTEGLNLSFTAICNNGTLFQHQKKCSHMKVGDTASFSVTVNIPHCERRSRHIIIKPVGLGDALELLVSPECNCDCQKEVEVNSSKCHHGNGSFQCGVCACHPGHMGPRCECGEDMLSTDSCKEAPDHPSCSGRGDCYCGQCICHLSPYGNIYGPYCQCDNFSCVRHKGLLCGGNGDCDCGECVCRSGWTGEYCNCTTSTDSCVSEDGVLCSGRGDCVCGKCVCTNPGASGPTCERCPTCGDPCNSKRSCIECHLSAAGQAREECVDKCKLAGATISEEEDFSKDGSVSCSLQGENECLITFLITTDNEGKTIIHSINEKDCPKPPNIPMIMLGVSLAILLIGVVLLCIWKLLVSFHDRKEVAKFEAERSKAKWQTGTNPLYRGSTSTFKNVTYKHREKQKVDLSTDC
UniProt P43406: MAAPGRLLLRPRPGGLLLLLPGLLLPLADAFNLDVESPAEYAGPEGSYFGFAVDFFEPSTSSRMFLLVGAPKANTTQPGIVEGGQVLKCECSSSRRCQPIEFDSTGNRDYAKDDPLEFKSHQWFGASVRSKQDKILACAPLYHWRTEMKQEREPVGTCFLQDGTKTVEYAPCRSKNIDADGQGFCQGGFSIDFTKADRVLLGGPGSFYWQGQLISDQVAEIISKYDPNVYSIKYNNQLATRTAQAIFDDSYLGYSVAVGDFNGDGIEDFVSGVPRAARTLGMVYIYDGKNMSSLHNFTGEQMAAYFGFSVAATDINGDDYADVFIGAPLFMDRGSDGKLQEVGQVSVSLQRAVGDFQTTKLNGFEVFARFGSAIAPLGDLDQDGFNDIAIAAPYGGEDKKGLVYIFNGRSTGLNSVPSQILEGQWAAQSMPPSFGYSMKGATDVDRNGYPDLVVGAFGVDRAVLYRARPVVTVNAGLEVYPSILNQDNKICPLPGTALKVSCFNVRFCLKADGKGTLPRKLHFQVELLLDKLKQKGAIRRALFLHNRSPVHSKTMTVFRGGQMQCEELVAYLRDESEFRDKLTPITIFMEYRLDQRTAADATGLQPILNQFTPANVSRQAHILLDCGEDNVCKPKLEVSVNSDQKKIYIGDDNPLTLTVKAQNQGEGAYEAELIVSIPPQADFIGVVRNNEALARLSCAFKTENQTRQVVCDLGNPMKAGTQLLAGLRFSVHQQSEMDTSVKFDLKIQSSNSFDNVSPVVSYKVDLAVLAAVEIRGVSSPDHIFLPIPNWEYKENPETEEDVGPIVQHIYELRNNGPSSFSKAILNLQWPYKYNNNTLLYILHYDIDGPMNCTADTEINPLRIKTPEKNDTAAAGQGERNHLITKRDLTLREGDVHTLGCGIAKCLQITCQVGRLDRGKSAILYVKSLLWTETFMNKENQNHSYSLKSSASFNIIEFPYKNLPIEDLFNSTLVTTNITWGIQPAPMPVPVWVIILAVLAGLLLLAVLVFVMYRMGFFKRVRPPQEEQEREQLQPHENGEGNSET
UniProt Q9Z0T9: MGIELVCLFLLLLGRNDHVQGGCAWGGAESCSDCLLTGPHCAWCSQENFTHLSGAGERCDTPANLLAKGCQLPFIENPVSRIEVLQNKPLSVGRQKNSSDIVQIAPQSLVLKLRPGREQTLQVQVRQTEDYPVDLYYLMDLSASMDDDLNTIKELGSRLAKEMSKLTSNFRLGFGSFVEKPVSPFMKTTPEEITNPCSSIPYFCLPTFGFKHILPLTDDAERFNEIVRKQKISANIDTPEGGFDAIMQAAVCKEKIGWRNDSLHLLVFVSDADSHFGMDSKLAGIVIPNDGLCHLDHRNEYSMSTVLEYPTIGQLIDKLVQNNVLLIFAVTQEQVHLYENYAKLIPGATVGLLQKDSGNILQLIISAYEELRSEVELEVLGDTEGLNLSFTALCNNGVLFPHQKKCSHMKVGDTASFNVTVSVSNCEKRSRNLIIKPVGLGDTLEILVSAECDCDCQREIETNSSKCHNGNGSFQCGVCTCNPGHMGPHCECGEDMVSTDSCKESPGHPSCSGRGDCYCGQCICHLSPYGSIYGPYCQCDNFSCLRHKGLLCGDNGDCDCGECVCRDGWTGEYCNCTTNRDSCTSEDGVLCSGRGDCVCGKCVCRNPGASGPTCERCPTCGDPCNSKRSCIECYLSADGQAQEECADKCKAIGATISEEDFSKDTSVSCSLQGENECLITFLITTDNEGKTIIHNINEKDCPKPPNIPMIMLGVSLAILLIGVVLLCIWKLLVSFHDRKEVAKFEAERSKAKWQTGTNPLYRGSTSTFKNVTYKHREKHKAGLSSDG

Experiments:
[1] = target: T1, soluble recombinant human αvβ6 (human) (UniProt P06756+P18564); test: ELISA, coated hsαvβ6, 10 mM EDTA
[2] = target: T2, αvβ6 on β6-transfected FDC-P1 cells (murine) (UniProt P43406+Q9Z0T9); test: adhesion of labelled β6-transfected FDC-P1 cells to plate-bound LAP, % binding; blocked ligand LAP
[3] = target: T1, soluble recombinant human αvβ6 (human); test: blocking ELISA: biotin-αvβ6 pre-mixed with mAb, binding to plate-bound LAP; blocked ligand LAP
[4] = target: T1, soluble recombinant human αvβ6 (human); test: ELISA: purified mAb on plate-bound hsαvβ6, 1 mM Ca2+ and 1 mM Mg2+, A450
[5] = target: T1, soluble recombinant human αvβ6 (human); test: legend of FIG. 7A
[6] = target: T2, αvβ6 on β6-transfected FDC-P1 cells (murine); test: cell capture assay: labelled β6-transfected FDC-P1 cells caught on plate-bound mAb, % binding; untransfected FDC-P1 cells as control
[7] = target: T1, soluble recombinant human αvβ6 (human); test: ELISA, coated hsαvβ6, cation dependence

Measured: binding

B1: 7.1G10 (antibody, V domains shown)
VH: QVQLQQSGPELVKPGASVRISCKASGYTFTSYYIHWVKQRPGQGLEWIGWLYPGKINTRYNEKFKGKATLIADKSSSTAYMQLSSLTSEDSAVYFCARHVLNGNFDYWGQGTTLTVSS
VL: DIQMTQSPSSLSASLGERVSLTCRASQEISGYLSWLQQKPDGSIKRLIYAASTLDSGVPKRFSGSRSGADYSLTISSLESEDFADYYCLQYATYPYTFGGGTKLEIK
binds: [1] | [2] | [3] | [4] | [5] | [6]

B2: 7.7G5 (antibody, V domains shown)
VH: EVQLQQSGPELVKPGASVKISCKASGYSFTGYFMNWVMQSHGKSLEWIGRIKPYNGDNFYNQKFMGKATLTVDKSSSTVHMELRSLASEDSAVYYCARDRYGTYGMDYWGQGTSVTVSS
VL: QIVLTQSPAIMSASPGEKVTMTCSASSSVSYMHWYQQKSGTSPKRWIYDTSKLASGVPTRFSGSGSGTSYSLTINSMEAEDAATYYCQQWSSHPPTFGAGTKLELK
binds: [2] | [3] | [7] | [4] | [5] | [6]
